Measurements taken from patent publication US7060435.
Where cells or extracts were used, other partners may take part. For some assays here: A negative result means that nothing was seen under these conditions.

The chains behind the UniProt entries cited, without tags or fusion partners. Residues count along the entry.
UniProt P08047, 2-785: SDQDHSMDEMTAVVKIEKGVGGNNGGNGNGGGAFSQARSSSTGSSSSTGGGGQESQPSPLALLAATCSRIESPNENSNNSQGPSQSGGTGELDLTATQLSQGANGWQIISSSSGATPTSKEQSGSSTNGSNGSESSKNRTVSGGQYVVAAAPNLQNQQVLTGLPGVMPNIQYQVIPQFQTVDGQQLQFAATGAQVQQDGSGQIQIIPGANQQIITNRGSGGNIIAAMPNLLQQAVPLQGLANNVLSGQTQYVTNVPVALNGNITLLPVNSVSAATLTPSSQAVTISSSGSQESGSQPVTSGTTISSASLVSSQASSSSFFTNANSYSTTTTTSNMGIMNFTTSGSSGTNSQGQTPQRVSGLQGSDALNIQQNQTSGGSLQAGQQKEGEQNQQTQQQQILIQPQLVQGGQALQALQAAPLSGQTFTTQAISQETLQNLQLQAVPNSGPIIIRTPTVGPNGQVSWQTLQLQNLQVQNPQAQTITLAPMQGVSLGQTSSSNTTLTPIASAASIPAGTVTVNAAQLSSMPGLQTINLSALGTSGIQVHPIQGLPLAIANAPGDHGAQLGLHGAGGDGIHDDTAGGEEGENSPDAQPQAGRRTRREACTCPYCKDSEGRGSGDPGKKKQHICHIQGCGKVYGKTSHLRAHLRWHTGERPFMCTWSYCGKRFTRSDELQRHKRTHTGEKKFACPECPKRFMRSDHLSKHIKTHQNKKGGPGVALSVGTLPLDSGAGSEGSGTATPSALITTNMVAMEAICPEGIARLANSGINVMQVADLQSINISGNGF

Experiments:
Sp1 [1] = biological target: Sp1 (UniProt P08047); test: competition with a labelled probe; details: 50- and 100-fold excess unlabeled wild-type oligo did not compete the A-147G band shift; protein in an extract
Sp1 [2] = biological target: Sp1 (UniProt P08047); test: EMSA; details: band shift with 2 ug HeLa nuclear extract, 30 min 16 C; competed by 50-100x unlabeled self; supershifted by anti-Sp1 antibody; protein in an extract; label: 32P 5' end (T4 polynucleotide kinase); variant of CYP3A5 wild-type -147A 31-mer

Row | Sequence | binding result (Sp1 [1]) | binding result (Sp1 [2])
1 | GGCAGCTGCAGCCCCACCTCCTTCTCCAGCA (double strand) [CYP3A5 wild-type -147A 31-mer] | no binding | –
2 | GGCAGCTGCAGCCCCGCCTCCTTCTCCAGCA (double strand) [CYP3A5 A-147G 31-mer] | – | binds
